Data published in publication PMC10445730.
Positions count from the first letter of the chain named. Numbers in names are those of the source. These are yes or no findings as the source states them, for the method shown. Binding seen in cells or lysates may run through a third protein. Binding can be weak; no strength is given. Sequences can lack the tags named with a protein.

B1: HA-tagged wild-type Drosophila HDAC3 (enzyme, UniProt Q7KTS4 1-438)
chain: MTDRRVSYFYNADVGNFHYGAGHPMKPQRLAVTHSLVMNYGLHKKMKIYRPYKASAQDMLRFHSDEYIAYLQQVTPQNIQCNSVAYTKYLAHFSVGEDCPVFDGLFDFCAMYTGASLEGAQKLNHNHSDICINWSGGLHHAKKFEASGFCYVNDIVIGILELLKYHPRVLYIDIDVHHGDGVQEAFYLTDRVMTASFHKYGNYFFPGTGDMYEIGAESGRYYSVNVPLKEGIDDQSYFQVFKPIISAIMDFYRPTAIVLQCGADSLAGDRLGCFSLSTKGHGECVKFVKELNVPTLVVGGGGYTLRNVARCWTHETSLLVDQDIENDLPATEYYDFFAPDFTLHPEINSRQDNANSKQYLELIVKHVYENLKMCQHSPSVQMVQTPPDVDLEELRSNREEASDPDVRISVADEDKLVDAKNEFYDGDQDQDKPDSAES
B2: HA-tagged Drosophila HDAC3 Y303F (enzyme, UniProt Q7KTS4 1-438)
chain: B1 chain with Y303F
B3: HA-tagged Drosophila HDAC3 K26A (enzyme, UniProt Q7KTS4 1-438)
chain: B1 chain with K26A

Target: V5-tagged full-length SMRTER (Drosophila)
Test: co-IP; S2 cells co-transfected with HA-tagged HDAC3 and V5-tagged Smr; V5 antibody with protein A/G magnetic beads; blot probed with HA antibody

binding, binds:
B1
B2
B3
